Data published in PubChem BioAssay AID248 (DTP/NCI, 2004).
The list shows only some results of the screen, not a fair sample: it is rich in T/C values a quarter to a half above the control, in often repeated tests (any T/C) and in doses without a T/C. Other doses and runs of a compound stand elsewhere. T/C is the treated group as % of the vehicle group. Some entries give survivors of the animals treated and no T/C: the source files T/C as zero there, which appears to mark a toxic dose or a test without result, not a measured value. Some doses without a T/C left all or most animals alive at the check, yet need not have been tolerated: the source hardly ever lists a survival T/C far under the control, and the zero likely stands for such cases as well. Counts of survivors are from the toxicity check (mostly the fifth day) where no day follows; animals may have died later. Schedules are NCI's codes, taken here to give the interval after Q, in days (D) or hours (H), and the number of doses after X. Some schedules carry Z or #; the key to these is not given. Where survival is the endpoint, this PubChem deposit counts one and a half times the control or more as active, and values a quarter to a half above the control carry no call in these data; other NCI protocols may use other cut-offs. Some T/C values are followed by the survivors on the day toxicity was checked, most often the fifth; without a count, all were alive then. Some entries hold several experiments; their values stand side by side, smallest first. Brackets with × give the number of equal values in this list.

Test system: L1210 leukemia ip in BDF1 mice, survival T/C
Test: NCI In Vivo Anticancer Drug Screen. Data for tumor model L1210 Leukemia (intraperitoneal) in B6D2F1 (BDF1) mice
Settings: T/C endpoint: mean survival time, higher T/C = longer survival
[1] = dose: 11.3 mg/kg/injection, schedule: Q01DX010 (ip), vehicle: saline

O=P1(N(CCCl)CCCl)NCCCO1 (stereo not drawn)
T/C (dose: 7.0 mg/kg/injection, schedule: Q01DX009 (ip), vehicle: saline): 107 (2×), 108, 111 % of control | T/C (dose: 8.0 mg/kg/injection, schedule: Q03HX032 (ip), vehicle: saline): 125 % of control | T/C (dose: 8.0 mg/kg/injection, schedule: Q## X032 (ip), vehicle: saline): 125 % of control | T/C [1]: 101, 103, 104 % of control | survivor count [1]: 0 of 6 | T/C (dose: 12.5 mg/kg/injection, schedule: Q01DX009 (oral), vehicle: saline): 128 % of control | T/C (dose: 12.5 mg/kg/injection, schedule: Q01DX Z (ip), vehicle: saline): 110, 112, 117, 120, 141 % of control | T/C (dose: 14.0 mg/kg/injection, schedule: Q01DX009 (ip), vehicle: saline): 117 (2×), 118, 128 % of control | T/C (dose: 17.0 mg/kg/injection, schedule: Q01DX Z (ip), vehicle: saline): 136 % of control | T/C (dose: 19.0 mg/kg/injection, schedule: Q02DX010 (ip), vehicle: carboxymethylcellulose (CMC)): 133 % of control | T/C (dose: 19.7 mg/kg/injection, schedule: Q01DX010 (ip), vehicle: saline): 129 % of control | survivor count (dose: 20.0 mg/kg/injection, schedule: Q01DX Z (im), vehicle: saline): 6 of 6 | T/C (dose: 20.0 mg/kg/injection, schedule: Q02DX010 (ip), vehicle: other): 125 % of control | T/C (dose: 22.0 mg/kg/injection, schedule: Q01DX015 (ip), vehicle: saline): 136 % of control | T/C (dose: 22.5 mg/kg/injection, schedule: Q01DX009 (ip), vehicle: saline): 130 and 137 % of control | T/C (dose: 22.5 mg/kg/injection, schedule: Q01DX010 (ip), vehicle: saline): 114, 118, 126, 130 % of control | T/C (dose: 22.5 mg/kg/injection, schedule: Q01DX Z (ip), vehicle: saline): 125, 132, 147 % of control | T/C (dose: 22.5 mg/kg/injection, schedule: Q13HX018 (ip), vehicle: saline): 142 % of control | T/C (dose: 22.5 mg/kg/injection, schedule: Q## X Z (ip), vehicle: saline): 141 % of control | T/C (dose: 25.0 mg/kg/injection, schedule: Q01DX001 (ip), vehicle: saline, evaluated on day 30): 101 and 105 % of control | T/C (dose: 25.0 mg/kg/injection, schedule: Q01DX001 (ip), vehicle: saline, evaluated on day 45): 108 % of control | T/C (dose: 25.0 mg/kg/injection, schedule: Q01DX001 (ip), vehicle: saline, evaluated on day 60): 105 and 107 % of control | T/C (dose: 25.0 mg/kg/injection, schedule: Q01DX001 (ip), vehicle: saline, run until all animals had died): 96, 111, 112, 121 % of control | T/C (dose: 25.0 mg/kg/injection, schedule: Q01DX009 (ip), vehicle: saline, evaluated on day 30): 132 % of control [5 of 6 alive] | T/C (dose: 25.0 mg/kg/injection, schedule: Q01DX009 (ip), vehicle: saline, evaluated on day 60): 146 % of control | T/C (dose: 25.0 mg/kg/injection, schedule: Q01DX009 (oral), vehicle: saline): 136 % of control | T/C (dose: 25.0 mg/kg/injection, schedule: Q01DX Z (ip), vehicle: methylcellulose (MC)): 129 % of control [5 of 6 alive] | T/C (dose: 25.0 mg/kg/injection, schedule: Q01DX Z (ip), vehicle: saline): 118, 120 (2×), 130, 145 % of control | T/C (dose: 25.0 mg/kg/injection, schedule: Q01DX Z (oral), vehicle: saline): 135 % of control | T/C (dose: 25.0 mg/kg/injection, schedule: Q01DX Z (sc), vehicle: saline): 125 % of control | T/C (dose: 26.0 mg/kg/injection, schedule: Q02DX010 (ip), vehicle: carboxymethylcellulose (CMC)): 142 % of control | T/C (dose: 26.0 mg/kg/injection, schedule: Q02DX010 (ip), vehicle: saline): 127 % of control | T/C (dose: 27.0 mg/kg/injection, schedule: Q01DX009 (ip), vehicle: saline): 123, 133, 136 [2 of 2 alive], 147 % of control | T/C (dose: 27.0 mg/kg/injection, schedule: Q01DX015 (ip), vehicle: saline): 135 % of control | T/C (dose: 28.0 mg/kg/injection, schedule: Q02DX010 (ip), vehicle: saline): 130 and 135 % of control | T/C (dose: 28.5 mg/kg/injection, schedule: Q01DX Z (ip), vehicle: carboxymethylcellulose (CMC)): 136 % of control | T/C (dose: 28.6 mg/kg/injection, schedule: Q02DX010 (ip), vehicle: carboxymethylcellulose (CMC)): 138 % of control | T/C (dose: 30.0 mg/kg/injection, schedule: Q02DX010 (ip), vehicle: other): 129 and 142 % of control | T/C (dose: 30.0 mg/kg/injection, schedule: Q04DX002 (ip), vehicle: saline): 125 % of control | T/C (dose: 33.7 mg/kg/injection, schedule: Q## X006 (ip), vehicle: saline): 144 % of control | T/C (dose: 35.0 mg/kg/injection, schedule: Q01DX Z (ip), vehicle: saline): 141 % of control | T/C (dose: 37.5 mg/kg/injection, schedule: Q01DX001 (ip), vehicle: saline, evaluated on day 20): 122 % of control | T/C (dose: 37.5 mg/kg/injection, schedule: Q01DX001 (ip), vehicle: saline, evaluated on day 30): 98, 103, 105, 114 (2×), 115, 117, 118, 126, 128, 130, 135 % of control (2×) | T/C (dose: 38.0 mg/kg/injection, schedule: Q01DX Z (ip), vehicle: carboxymethylcellulose (CMC)): 147 % of control | T/C (dose: 40.0 mg/kg/injection, schedule: Q## X008 (ip), vehicle: saline): 141 % of control | T/C (dose: 43.0 mg/kg/injection, schedule: Q02DX010 (ip), vehicle: carboxymethylcellulose (CMC)): 150, 153, 171, 173, 191, 197 % of control | T/C (dose: 44.0 mg/kg/injection, schedule: Q## X008 (ip), vehicle: saline): 146 % of control | T/C (dose: 45.0 mg/kg/injection, schedule: Q01DX001 (ip), vehicle: saline): 130 % of control | T/C (dose: 45.0 mg/kg/injection, schedule: Q01DX010 (ip), vehicle: saline): 146, 149, 159, 176 % of control | T/C (dose: 45.0 mg/kg/injection, schedule: Q## X Z (ip), vehicle: saline): 126 % of control | T/C (dose: 50.0 mg/kg/injection, schedule: Q01DX001 (ip), vehicle: saline, evaluated on day 5): 108 % of control | T/C (dose: 50.0 mg/kg/injection, schedule: Q01DX001 (ip), vehicle: saline, evaluated on day 7): 124 and 186 % of control | T/C (dose: 50.0 mg/kg/injection, schedule: Q01DX001 (ip), vehicle: saline, evaluated on day 30): 110, 115, 118, 129 % of control (2×) | T/C (dose: 50.0 mg/kg/injection, schedule: Q01DX001 (ip), vehicle: saline, evaluated on day 45): 126 % of control | T/C (dose: 50.0 mg/kg/injection, schedule: Q01DX001 (ip), vehicle: saline, evaluated on day 60): 114, 122, 123, 133, 134 % of control | T/C (dose: 50.0 mg/kg/injection, schedule: Q01DX001 (ip), vehicle: saline, evaluated on day 63): 126 % of control | T/C (dose: 50.0 mg/kg/injection, schedule: Q01DX001 (ip), vehicle: saline, evaluated on day 64): 185 % of control | T/C (dose: 50.0 mg/kg/injection, schedule: Q01DX001 (ip), vehicle: saline, run until all animals had died): 91, 118, 122, 139 % of control | T/C (dose: 50.0 mg/kg/injection, schedule: Q01DX006 (iv), vehicle: saline): 137 % of control | T/C (dose: 50.0 mg/kg/injection, schedule: Q01DX009 (ip), vehicle: saline): 137 % of control | T/C (dose: 50.0 mg/kg/injection, schedule: Q01DX Z (im), vehicle: saline): 132 % of control | T/C (dose: 50.0 mg/kg/injection, schedule: Q01DX Z (ip), vehicle: methylcellulose (MC)): 128 and 146 % of control | T/C (dose: 50.0 mg/kg/injection, schedule: Q01DX Z (ip), vehicle: saline): 120, 150, 176, 185, 308 % of control | T/C (dose: 50.0 mg/kg/injection, schedule: Q04DX002 (ip), vehicle: saline): 130 % of control | T/C (dose: 50.0 mg/kg/injection, schedule: Q04DX003 (ip), vehicle: saline): 133 and 141 % of control | T/C (dose: 50.0 mg/kg/injection, schedule: Q07DX003 (ip), vehicle: saline): 131 % of control | T/C (dose: 54.0 mg/kg/injection, schedule: Q01DX009 (ip), vehicle: saline): 136 % of control | T/C (dose: 54.0 mg/kg/injection, schedule: Q## X004 (ip), vehicle: saline): 148 % of control | T/C (dose: 59.0 mg/kg/injection, schedule: Q01DX001 (ip), vehicle: saline, evaluated on day 5): 131 % of control | T/C (dose: 59.0 mg/kg/injection, schedule: Q01DX001 (ip), vehicle: saline, evaluated on day 45): 132 % of control | T/C (dose: 59.0 mg/kg/injection, schedule: Q04DX002 (ip), vehicle: saline): 135, 138, 142, 160 % of control | T/C (dose: 60.0 mg/kg/injection, schedule: Q02DX010 (ip), vehicle: carboxymethylcellulose (CMC)): 139 % of control | T/C (dose: 62.5 mg/kg/injection, schedule: Q01DX001 (ip), vehicle: saline): 142 % of control | T/C (dose: 62.5 mg/kg/injection, schedule: Q01DX001 (ip), vehicle: water, evaluated on day 30): 146 % of control | T/C (dose: 62.5 mg/kg/injection, schedule: Q01DX001 (ip), vehicle: water, evaluated on day 45): 126 % of control | T/C (dose: 64.0 mg/kg/injection, schedule: Q## X032 (ip), vehicle: saline): 126 % of control | T/C (dose: 64.5 mg/kg/injection, schedule: Q02DX010 (ip), vehicle: other): 146 % of control | T/C (dose: 65.0 mg/kg/injection, schedule: Q01DX001 (ip), vehicle: saline): 132 % of control | T/C (dose: 65.0 mg/kg/injection, schedule: Q01DX001 (sc), vehicle: saline): 138 and 142 % of control | T/C (dose: 65.0 mg/kg/injection, schedule: Q08DX002 (ip), vehicle: saline): 136 % of control | T/C (dose: 66.0 mg/kg/injection, schedule: Q01DX001 (ip), vehicle: saline): 131 % of control | T/C (dose: 67.0 mg/kg/injection, schedule: Q02DX010 (ip), vehicle: carboxymethylcellulose (CMC)): 140, 162, 185, 225, 233 % of control | T/C (dose: 75.0 mg/kg/injection, schedule: Q01DX001 (ip), vehicle: saline with Tween-80): 132 % of control | T/C (dose: 75.0 mg/kg/injection, schedule: Q01DX001 (ip), vehicle: saline, evaluated on day 20): 127 % of control | T/C (dose: 75.0 mg/kg/injection, schedule: Q01DX001 (ip), vehicle: saline, evaluated on day 30): 99, 115, 117, 131, 132, 134, 137, 138 [5 of 6 alive], 139 (2×), 146, 148, 150 % of control | T/C (dose: 75.0 mg/kg/injection, schedule: Q01DX001 (ip), vehicle: water, evaluated on day 5): 124, 133, 185 % of control | T/C (dose: 75.0 mg/kg/injection, schedule: Q01DX001 (ip), vehicle: water, evaluated on day 30): 196 % of control | T/C (dose: 75.0 mg/kg/injection, schedule: Q01DX001 (ip), vehicle: water, evaluated on day 60): 133 and 154 % of control
